Assay results taken from the supplement of paper PMC12595434, “Development of retinoid nuclear receptor pathway antagonists through targeting aldehyde dehydrogenase 1A3” (iScience, 2025).
This is one part of the list. This is a noisy data set.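 Many melting curves are irregular; where none melted, Tm was taken as 64 °C.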

Sequences of proteins named here, by UniProt entry; tags and fusion partners are left off. A change or cut given only in a name is not applied to a line headed by its entry.
UniProt Q96L58: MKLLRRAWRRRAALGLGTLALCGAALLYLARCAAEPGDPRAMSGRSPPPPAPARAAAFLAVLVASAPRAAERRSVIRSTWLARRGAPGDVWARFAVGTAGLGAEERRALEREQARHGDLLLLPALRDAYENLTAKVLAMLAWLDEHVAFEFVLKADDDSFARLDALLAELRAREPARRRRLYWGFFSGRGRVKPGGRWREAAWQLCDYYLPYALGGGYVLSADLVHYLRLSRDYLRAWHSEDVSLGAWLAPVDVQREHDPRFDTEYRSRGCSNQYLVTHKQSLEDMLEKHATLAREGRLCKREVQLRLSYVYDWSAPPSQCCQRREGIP
UniProt Q96RE7: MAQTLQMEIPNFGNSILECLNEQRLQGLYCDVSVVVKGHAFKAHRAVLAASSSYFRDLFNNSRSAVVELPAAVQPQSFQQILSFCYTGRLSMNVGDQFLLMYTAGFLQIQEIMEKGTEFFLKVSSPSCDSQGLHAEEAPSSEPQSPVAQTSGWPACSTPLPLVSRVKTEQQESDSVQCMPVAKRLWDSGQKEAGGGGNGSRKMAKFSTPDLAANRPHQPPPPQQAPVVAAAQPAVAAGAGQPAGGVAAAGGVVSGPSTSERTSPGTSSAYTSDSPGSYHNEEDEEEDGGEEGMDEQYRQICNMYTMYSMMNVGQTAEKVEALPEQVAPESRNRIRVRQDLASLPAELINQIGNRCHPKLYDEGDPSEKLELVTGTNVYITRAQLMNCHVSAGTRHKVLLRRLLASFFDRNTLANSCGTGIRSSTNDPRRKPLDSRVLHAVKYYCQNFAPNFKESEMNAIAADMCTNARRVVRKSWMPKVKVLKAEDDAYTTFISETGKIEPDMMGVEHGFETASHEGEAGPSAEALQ
UniProt Q96G74: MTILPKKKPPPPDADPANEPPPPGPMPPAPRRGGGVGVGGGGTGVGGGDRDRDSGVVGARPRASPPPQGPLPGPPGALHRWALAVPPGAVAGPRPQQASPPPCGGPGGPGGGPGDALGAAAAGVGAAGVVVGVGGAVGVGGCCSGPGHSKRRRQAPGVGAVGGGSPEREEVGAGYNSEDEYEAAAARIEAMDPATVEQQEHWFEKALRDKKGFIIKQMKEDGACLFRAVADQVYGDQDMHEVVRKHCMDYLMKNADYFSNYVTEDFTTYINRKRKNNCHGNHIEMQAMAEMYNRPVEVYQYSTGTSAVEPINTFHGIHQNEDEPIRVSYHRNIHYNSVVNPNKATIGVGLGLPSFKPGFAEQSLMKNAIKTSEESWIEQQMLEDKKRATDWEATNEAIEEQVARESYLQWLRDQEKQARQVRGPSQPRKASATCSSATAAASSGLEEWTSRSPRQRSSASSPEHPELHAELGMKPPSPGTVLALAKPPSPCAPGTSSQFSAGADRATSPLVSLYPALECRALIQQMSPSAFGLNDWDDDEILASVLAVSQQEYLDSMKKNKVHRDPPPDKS
UniProt Q96S66: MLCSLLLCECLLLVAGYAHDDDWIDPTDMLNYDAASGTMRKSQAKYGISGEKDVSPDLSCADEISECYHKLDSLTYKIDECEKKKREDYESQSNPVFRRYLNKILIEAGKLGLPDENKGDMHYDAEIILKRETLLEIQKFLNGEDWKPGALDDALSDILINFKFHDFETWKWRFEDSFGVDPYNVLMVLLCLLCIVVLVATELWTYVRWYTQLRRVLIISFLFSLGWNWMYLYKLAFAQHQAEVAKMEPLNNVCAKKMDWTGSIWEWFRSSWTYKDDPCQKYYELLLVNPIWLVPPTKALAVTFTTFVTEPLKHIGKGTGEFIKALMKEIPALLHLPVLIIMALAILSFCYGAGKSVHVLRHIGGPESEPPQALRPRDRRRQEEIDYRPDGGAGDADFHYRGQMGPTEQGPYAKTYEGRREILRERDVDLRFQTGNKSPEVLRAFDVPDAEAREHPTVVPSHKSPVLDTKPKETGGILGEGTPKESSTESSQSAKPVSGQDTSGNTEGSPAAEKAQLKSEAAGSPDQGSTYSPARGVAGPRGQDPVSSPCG
UniProt Q96FH0: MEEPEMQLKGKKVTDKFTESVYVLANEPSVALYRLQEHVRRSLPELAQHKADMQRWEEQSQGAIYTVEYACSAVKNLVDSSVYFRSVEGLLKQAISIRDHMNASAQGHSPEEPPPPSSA
UniProt Q96G21: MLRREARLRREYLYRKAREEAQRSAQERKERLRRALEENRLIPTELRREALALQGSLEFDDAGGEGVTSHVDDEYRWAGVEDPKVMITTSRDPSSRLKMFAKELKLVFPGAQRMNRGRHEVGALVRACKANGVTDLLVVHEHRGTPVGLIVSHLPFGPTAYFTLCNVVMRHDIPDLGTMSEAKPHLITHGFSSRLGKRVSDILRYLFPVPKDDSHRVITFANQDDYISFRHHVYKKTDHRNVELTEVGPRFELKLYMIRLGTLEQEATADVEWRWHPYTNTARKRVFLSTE
UniProt Q96QT4: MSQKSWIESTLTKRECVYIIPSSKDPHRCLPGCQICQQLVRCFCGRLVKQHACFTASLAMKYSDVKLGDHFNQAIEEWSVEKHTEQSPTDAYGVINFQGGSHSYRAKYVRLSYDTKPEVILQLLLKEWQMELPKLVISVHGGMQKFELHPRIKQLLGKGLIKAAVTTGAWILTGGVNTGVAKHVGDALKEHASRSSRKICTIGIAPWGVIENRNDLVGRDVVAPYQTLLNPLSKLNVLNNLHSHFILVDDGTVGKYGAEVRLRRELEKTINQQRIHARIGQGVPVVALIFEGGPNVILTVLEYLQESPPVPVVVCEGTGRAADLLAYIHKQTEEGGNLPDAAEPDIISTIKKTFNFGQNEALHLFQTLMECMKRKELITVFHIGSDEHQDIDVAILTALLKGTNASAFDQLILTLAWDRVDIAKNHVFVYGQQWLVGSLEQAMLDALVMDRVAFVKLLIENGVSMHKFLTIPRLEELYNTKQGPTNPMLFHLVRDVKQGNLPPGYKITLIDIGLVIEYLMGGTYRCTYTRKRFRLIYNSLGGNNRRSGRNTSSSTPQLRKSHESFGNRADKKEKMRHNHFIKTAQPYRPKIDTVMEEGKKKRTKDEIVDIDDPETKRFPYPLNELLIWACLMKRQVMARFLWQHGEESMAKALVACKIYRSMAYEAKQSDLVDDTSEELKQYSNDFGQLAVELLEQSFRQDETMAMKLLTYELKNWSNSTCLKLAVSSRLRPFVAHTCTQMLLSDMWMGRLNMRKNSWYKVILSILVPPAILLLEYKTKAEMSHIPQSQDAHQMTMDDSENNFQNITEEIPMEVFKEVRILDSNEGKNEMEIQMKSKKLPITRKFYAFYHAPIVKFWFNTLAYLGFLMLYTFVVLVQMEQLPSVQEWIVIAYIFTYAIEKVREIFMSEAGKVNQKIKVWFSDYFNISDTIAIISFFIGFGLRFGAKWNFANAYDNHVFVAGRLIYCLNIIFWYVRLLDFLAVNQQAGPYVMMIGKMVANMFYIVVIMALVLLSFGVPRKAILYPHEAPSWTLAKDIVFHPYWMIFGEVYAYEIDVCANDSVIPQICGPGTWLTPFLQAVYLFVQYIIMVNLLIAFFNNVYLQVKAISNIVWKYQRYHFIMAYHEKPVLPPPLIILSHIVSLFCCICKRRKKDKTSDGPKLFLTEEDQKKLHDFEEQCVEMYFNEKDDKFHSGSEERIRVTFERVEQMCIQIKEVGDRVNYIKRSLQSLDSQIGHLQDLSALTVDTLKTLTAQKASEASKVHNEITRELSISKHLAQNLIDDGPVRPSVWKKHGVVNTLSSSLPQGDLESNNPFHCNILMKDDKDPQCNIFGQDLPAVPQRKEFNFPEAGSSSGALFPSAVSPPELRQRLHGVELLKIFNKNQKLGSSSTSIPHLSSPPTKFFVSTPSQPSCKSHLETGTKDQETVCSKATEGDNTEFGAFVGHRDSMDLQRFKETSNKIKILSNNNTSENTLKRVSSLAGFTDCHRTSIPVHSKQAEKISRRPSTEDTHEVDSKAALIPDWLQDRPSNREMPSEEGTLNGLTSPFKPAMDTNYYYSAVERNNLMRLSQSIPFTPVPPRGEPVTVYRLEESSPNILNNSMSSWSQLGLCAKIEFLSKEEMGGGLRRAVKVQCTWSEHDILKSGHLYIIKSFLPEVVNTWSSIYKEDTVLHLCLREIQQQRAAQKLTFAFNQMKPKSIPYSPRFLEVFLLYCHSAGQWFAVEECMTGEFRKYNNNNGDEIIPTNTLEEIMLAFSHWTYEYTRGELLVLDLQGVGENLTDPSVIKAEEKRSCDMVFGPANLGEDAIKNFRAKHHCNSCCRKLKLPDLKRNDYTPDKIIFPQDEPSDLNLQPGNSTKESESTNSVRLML
UniProt Q96K49: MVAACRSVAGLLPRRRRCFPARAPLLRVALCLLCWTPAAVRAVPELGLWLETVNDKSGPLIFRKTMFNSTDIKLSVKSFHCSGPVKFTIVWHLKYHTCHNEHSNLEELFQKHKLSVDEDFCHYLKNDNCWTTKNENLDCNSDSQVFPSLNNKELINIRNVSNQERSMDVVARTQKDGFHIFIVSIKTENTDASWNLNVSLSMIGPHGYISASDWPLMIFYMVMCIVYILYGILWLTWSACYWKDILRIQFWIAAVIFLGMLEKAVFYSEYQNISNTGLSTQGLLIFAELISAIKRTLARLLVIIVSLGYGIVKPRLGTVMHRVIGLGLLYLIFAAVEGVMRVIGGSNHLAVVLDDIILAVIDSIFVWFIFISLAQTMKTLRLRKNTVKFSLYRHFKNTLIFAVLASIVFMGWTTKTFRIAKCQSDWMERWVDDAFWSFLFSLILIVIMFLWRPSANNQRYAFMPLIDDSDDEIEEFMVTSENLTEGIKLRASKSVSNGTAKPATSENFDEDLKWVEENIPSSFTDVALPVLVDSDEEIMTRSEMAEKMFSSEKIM
UniProt Q96EN8: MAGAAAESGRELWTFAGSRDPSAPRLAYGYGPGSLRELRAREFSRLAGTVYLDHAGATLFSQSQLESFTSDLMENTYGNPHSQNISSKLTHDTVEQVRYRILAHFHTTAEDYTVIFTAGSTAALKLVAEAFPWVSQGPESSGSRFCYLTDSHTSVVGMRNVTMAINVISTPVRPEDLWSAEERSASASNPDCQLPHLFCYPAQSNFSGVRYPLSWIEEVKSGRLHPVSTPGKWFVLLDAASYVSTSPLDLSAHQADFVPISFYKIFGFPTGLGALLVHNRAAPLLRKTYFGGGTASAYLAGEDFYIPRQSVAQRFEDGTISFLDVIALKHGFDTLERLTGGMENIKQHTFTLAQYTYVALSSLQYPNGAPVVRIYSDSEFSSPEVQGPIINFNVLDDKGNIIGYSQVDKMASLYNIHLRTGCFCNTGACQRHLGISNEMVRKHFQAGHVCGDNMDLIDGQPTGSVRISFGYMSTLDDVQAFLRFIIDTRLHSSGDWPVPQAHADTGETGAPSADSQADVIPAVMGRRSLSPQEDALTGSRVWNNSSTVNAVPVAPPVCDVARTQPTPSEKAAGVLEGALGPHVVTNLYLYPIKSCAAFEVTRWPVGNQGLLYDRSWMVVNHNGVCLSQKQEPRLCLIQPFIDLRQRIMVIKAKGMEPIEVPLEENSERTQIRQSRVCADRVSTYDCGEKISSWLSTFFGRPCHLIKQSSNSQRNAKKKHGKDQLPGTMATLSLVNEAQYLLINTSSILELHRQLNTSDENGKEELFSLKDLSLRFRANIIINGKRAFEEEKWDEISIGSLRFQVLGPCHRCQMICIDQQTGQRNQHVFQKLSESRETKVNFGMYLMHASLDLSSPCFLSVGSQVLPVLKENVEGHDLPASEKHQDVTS
UniProt Q96JJ3: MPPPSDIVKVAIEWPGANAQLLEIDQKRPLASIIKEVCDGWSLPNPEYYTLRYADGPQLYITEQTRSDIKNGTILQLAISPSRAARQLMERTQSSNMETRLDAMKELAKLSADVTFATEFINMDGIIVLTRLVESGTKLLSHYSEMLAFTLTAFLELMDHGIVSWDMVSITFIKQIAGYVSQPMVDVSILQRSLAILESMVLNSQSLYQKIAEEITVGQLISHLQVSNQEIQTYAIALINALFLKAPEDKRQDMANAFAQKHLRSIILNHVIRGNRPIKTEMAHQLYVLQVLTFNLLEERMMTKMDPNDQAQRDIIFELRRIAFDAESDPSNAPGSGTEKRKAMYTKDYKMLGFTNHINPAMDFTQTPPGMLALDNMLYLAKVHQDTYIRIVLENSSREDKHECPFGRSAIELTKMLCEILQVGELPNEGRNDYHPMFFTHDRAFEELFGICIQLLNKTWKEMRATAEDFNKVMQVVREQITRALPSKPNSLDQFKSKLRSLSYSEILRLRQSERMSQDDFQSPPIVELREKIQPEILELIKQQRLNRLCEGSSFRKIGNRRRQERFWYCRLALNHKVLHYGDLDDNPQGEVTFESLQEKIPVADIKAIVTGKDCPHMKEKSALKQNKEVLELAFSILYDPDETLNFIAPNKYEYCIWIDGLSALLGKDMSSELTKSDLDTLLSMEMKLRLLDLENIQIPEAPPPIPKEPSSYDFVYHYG

Each target was assayed with CCc1cnccc1C(=O)Nc1cc2c(cc1F)NC(=O)CC2 (assay: melting temperature shift (DMSO Tm minus MBE1-treated Tm) in cellular thermal proteome profiling; higher = less thermal stabilization by MBE1 (negative = stabilized by MBE1)). Conditions: A375; MBE1 concentration: 100 nM.

Target	melting temperature shift
UniProt Q96L58	-1.03 °C
DDX11 (UniProt Q96FC9)	-2.61 °C
DTNBP1 (UniProt Q96EV8)	-1.03 °C
NACC1 (UniProt Q96RE7)	-0.805 °C
EXOC2 (UniProt Q96KP1)	-0.245 °C
OTUD5 (UniProt Q96G74)	-0.482 °C
CLCC1 (UniProt Q96S66)	-2.88 °C
EDC3 (UniProt Q96F86)	0.446 °C
UniProt Q96FH0	-0.215 °C
MRPL48 (UniProt Q96GC5)	1.2 °C
UniProt Q96G21	0.916 °C
C16ORF58 (UniProt Q96GQ5)	-0.268 °C
ADO (UniProt Q96SZ5)	-1.41 °C
RPRD1A (UniProt Q96P16)	-1.33 °C
C1GALT1C1 (UniProt Q96EU7)	-0.469 °C
DCUN1D1 (UniProt Q96GG9)	0.25 °C
C16ORF13 (UniProt Q96S19)	0.305 °C
UniProt Q96PV6	-0.833 °C
TCF12 (UniProt Q99081)	-0.404 °C

Target	melting temperature shift
SLC38A2 (UniProt Q96QD8)	-1.56 °C
UniProt Q96MU7	-0.725 °C
PSMD1 (UniProt Q99460)	-0.701 °C
SDSL (UniProt Q96GA7)	-1.18 °C
SORT1 (UniProt Q99523)	-1.02 °C
UniProt Q99502	-1.39 °C
UniProt Q96QT4	-7.49 °C
MASTL (UniProt Q96GX5)	-1.62 °C
UniProt Q96L93	-0.607 °C
TMEM87B (UniProt Q96K49)	0.0122 °C
UniProt Q96HA1	0.763 °C
UniProt Q96N64	1.94 °C
UniProt Q96H22	-1.65 °C
NAF1 (UniProt Q96HR8)	-1.56 °C
RNF2 (UniProt Q99496)	-0.933 °C
MOCOS (UniProt Q96EN8)	-0.979 °C
VPS39 (UniProt Q96JC1)	0.677 °C
ELMO2 (UniProt Q96JJ3)	0.198 °C
CDC5L (UniProt Q99459)	-0.397 °C

Same assay, conditions: A375; MBE1 concentration: 1 uM

Target	melting temperature shift
UniProt Q96L58	-0.389 °C
DDX11 (UniProt Q96FC9)	0.501 °C
DTNBP1 (UniProt Q96EV8)	1.29 °C
NACC1 (UniProt Q96RE7)	-0.0941 °C
EXOC2 (UniProt Q96KP1)	-0.198 °C
OTUD5 (UniProt Q96G74)	-0.0794 °C
CLCC1 (UniProt Q96S66)	-2.16 °C
EDC3 (UniProt Q96F86)	0.311 °C
UniProt Q96FH0	1.3 °C
MRPL48 (UniProt Q96GC5)	-1.13 °C
UniProt Q96G21	0.0977 °C
C16ORF58 (UniProt Q96GQ5)	-0.174 °C
ADO (UniProt Q96SZ5)	-1.97 °C
RPRD1A (UniProt Q96P16)	0.506 °C
C1GALT1C1 (UniProt Q96EU7)	-0.101 °C
DCUN1D1 (UniProt Q96GG9)	0.256 °C
C16ORF13 (UniProt Q96S19)	-0.116 °C
UniProt Q96PV6	-0.963 °C
TCF12 (UniProt Q99081)	-0.583 °C

Target	melting temperature shift
SLC38A2 (UniProt Q96QD8)	-0.59 °C
UniProt Q96MU7	-0.828 °C
PSMD1 (UniProt Q99460)	1.14 °C
SDSL (UniProt Q96GA7)	-0.0532 °C
SORT1 (UniProt Q99523)	-0.833 °C
UniProt Q99502	-1.03 °C
UniProt Q96QT4	-2.71 °C
MASTL (UniProt Q96GX5)	-1.37 °C
UniProt Q96L93	0.282 °C
TMEM87B (UniProt Q96K49)	1.42 °C
UniProt Q96HA1	0.965 °C
UniProt Q96N64	2.09 °C
UniProt Q96H22	-2.63 °C
NAF1 (UniProt Q96HR8)	0.055 °C
RNF2 (UniProt Q99496)	-0.372 °C
MOCOS (UniProt Q96EN8)	-0.121 °C
VPS39 (UniProt Q96JC1)	0 °C
ELMO2 (UniProt Q96JJ3)	-0.0329 °C
CDC5L (UniProt Q99459)	-0.186 °C
